Experimental data as given in PMC9387862.
These are yes or no findings as the source states them, for the method shown. Binding seen in cells or lysates may run through a third protein. Binding can be weak; no strength is given.

Chains of the proteins cited; added tags and fusions are not shown. Lines headed by an entry give the natural chain unless they say otherwise; changes in a name come on top.
UniProt P41046: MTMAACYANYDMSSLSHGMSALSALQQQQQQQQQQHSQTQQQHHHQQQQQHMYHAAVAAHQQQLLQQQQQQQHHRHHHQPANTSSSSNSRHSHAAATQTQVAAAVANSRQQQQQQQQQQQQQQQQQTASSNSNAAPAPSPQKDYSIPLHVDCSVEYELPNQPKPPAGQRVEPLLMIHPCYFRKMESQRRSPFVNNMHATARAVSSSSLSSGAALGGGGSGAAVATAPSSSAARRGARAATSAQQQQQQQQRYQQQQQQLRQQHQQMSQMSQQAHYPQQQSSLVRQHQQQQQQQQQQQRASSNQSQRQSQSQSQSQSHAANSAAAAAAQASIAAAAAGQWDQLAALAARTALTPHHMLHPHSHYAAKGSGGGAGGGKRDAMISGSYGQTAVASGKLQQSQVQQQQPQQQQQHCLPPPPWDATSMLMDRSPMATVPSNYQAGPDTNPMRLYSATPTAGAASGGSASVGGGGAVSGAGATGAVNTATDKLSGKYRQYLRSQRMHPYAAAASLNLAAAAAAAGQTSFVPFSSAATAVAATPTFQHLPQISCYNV
UniProt Q9W1B9: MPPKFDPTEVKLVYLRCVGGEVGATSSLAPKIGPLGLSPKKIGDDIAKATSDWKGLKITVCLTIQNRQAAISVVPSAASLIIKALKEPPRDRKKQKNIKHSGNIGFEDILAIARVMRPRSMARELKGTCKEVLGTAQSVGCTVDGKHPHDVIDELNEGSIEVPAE

Molecular target: FLAG-tagged chromodomain of Corto (Drosophila melanogaster) (UniProt P41046)
Assay: co-IP; S2 cells transiently co-transfected, harvested after 48 h, no fixation; anti-FLAG antibody on Protein G beads (anti-HA as mock); Western blot with anti-Myc and anti-FLAG

binding: binds
Substance: uL11-Myc (from UniProt Q9W1B9 1-165)
